No constants are given. Whether binding was seen depends on the method and setting. Some results given as binding are weak or reduced against the parent protein; the word gives no strength.

The chains behind the UniProt entries cited, without tags or fusion partners. Where a name states a change or a piece, a line headed by the entry shows the natural chain unless it says otherwise.
UniProt Q14683: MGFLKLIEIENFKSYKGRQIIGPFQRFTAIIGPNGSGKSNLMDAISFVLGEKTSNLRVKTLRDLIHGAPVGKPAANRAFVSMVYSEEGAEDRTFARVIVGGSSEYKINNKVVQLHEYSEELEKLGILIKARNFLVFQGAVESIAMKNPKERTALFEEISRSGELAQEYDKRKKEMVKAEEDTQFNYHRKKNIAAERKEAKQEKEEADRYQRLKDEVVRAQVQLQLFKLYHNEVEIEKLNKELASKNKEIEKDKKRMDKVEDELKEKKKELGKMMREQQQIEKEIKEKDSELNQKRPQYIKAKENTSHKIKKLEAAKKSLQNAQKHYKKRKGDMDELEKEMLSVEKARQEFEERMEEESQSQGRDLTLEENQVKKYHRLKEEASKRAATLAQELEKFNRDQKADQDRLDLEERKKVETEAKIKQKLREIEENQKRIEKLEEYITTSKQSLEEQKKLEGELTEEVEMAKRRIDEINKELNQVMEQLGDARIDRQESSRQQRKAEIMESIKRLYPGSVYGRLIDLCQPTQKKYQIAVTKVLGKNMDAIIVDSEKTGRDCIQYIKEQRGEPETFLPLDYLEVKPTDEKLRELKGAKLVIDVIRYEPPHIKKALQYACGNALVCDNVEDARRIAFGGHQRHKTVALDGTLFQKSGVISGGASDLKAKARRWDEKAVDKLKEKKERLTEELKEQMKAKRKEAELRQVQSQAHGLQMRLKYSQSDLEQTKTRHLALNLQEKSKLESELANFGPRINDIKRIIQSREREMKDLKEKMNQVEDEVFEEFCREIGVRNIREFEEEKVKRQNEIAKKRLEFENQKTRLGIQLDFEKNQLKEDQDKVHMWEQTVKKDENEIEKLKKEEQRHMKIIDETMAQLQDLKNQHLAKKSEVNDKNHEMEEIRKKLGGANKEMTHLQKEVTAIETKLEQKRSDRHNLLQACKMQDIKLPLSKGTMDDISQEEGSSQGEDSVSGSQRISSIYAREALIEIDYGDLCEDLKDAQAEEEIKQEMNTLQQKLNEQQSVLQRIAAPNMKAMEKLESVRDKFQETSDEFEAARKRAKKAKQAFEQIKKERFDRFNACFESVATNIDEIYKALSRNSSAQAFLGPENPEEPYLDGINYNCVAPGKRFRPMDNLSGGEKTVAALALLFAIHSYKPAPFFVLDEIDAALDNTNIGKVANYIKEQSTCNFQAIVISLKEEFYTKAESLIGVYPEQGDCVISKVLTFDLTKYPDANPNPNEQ
UniProt Q6KC79: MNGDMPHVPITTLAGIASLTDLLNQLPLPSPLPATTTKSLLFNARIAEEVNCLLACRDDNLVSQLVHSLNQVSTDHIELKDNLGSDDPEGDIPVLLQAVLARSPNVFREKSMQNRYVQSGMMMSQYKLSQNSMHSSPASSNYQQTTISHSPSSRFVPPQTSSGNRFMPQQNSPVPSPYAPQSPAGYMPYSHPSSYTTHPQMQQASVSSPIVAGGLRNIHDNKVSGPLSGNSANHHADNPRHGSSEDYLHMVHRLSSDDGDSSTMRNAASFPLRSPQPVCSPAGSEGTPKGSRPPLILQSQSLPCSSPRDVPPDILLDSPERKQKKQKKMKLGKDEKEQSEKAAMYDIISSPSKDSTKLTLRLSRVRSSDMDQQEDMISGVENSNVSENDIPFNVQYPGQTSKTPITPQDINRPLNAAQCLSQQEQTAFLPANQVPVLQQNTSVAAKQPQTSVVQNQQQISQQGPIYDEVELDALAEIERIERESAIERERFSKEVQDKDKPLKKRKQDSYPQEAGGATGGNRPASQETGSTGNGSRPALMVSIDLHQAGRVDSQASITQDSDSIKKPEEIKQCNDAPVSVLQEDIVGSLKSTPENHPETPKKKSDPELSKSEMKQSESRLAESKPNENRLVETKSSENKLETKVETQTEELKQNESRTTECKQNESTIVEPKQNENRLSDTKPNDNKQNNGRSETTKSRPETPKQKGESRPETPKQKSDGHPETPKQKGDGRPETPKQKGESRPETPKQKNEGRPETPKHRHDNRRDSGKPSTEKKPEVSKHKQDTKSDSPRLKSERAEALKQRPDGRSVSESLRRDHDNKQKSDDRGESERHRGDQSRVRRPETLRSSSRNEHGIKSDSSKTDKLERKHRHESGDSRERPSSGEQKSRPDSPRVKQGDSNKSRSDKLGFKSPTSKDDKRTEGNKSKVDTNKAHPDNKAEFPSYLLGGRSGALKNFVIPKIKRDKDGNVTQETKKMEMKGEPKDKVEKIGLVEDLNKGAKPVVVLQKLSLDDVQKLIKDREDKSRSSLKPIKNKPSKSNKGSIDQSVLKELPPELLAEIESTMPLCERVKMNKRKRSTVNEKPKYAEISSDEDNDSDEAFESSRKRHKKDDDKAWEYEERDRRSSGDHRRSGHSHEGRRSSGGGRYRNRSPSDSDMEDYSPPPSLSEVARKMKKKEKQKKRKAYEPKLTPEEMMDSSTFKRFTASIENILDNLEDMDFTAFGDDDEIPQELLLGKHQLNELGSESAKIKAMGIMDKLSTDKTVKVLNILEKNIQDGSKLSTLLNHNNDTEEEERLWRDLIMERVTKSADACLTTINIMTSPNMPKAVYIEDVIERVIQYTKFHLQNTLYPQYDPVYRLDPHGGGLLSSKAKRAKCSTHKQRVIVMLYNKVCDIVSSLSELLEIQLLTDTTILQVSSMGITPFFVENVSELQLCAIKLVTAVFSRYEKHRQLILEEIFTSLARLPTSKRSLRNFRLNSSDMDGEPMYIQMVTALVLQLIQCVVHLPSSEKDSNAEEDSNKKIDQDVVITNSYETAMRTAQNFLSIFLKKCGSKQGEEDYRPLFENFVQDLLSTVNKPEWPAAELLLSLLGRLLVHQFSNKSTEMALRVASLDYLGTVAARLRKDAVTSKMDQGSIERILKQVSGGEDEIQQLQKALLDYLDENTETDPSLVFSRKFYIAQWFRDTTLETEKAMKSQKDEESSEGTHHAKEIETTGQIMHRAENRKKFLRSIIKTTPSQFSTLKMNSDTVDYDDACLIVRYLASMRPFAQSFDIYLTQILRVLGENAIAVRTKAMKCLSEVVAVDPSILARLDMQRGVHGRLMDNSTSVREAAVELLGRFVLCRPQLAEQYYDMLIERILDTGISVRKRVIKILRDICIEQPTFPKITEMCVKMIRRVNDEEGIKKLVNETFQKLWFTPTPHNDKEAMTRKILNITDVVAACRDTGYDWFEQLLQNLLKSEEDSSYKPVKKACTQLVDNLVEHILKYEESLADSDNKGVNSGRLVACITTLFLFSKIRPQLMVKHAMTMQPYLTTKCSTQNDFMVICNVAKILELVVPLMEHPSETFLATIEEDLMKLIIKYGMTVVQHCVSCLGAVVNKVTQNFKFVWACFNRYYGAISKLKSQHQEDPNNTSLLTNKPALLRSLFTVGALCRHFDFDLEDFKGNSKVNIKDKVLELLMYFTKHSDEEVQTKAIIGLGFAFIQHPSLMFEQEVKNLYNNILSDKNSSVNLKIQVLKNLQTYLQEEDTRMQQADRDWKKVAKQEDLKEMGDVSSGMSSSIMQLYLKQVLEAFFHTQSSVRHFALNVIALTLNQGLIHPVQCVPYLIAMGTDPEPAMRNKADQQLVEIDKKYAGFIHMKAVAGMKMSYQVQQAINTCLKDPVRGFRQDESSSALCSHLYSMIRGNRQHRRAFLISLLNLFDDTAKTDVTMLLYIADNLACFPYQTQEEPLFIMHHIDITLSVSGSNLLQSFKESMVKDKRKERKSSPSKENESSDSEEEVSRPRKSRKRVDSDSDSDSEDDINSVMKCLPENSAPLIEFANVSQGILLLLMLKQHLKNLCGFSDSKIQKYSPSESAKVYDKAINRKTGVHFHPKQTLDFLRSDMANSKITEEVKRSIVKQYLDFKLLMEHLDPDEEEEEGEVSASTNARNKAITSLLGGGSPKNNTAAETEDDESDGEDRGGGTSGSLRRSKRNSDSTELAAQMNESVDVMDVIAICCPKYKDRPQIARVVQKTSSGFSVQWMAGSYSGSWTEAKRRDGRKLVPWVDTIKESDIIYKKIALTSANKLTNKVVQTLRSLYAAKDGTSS

The experiment addresses SMC1/SMC3/SCC1 cohesin Trimer (UniProt Q14683). Briefly: mass photometry; in solution; equilibrated mixture of 150 nM cohesin Trimer sample with 150 nM STAG1 and 150 nM NIPBL, without nucleotide or with 2.5 mM ATP or ATPγS; no DNA; both purified.

As for NIPBL (from UniProt Q6KC79 1-2804), the binding entry is recorded as “binds”.
